This is one part of the list. Most values lie at the level of the controls, where differences are scatter.

Chains of the proteins cited; added tags and fusions are not shown. Lines headed by an entry give the natural chain unless they say otherwise; changes in a name come on top.
UniProt Q91YT7: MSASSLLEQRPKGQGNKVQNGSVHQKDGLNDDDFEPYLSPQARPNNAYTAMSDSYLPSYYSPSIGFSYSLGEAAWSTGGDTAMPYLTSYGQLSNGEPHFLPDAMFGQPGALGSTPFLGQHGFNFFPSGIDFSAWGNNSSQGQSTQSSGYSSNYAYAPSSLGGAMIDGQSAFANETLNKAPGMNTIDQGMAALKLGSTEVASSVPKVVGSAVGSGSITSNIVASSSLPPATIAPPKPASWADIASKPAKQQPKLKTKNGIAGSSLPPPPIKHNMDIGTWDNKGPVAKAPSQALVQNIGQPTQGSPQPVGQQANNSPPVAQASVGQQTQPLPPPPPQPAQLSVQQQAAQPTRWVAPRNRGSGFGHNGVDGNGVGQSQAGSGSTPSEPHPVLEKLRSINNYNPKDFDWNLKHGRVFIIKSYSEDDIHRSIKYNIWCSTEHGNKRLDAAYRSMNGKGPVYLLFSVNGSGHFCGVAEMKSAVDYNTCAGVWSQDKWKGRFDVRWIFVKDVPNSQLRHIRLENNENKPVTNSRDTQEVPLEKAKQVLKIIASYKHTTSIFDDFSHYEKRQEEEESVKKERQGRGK
UniProt Q91YP3: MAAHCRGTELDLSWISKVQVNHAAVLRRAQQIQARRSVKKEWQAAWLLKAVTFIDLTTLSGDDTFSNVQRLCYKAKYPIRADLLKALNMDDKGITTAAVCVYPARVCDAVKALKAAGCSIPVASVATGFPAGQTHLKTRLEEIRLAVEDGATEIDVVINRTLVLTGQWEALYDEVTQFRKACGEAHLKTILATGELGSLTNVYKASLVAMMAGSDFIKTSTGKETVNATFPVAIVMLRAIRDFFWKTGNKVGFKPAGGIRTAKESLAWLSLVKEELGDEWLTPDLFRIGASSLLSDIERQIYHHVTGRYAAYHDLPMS
UniProt Q91WS0: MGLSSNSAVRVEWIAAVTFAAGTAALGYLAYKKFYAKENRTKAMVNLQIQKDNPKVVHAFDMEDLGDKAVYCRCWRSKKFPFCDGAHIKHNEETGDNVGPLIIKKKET
UniProt Q91XU0: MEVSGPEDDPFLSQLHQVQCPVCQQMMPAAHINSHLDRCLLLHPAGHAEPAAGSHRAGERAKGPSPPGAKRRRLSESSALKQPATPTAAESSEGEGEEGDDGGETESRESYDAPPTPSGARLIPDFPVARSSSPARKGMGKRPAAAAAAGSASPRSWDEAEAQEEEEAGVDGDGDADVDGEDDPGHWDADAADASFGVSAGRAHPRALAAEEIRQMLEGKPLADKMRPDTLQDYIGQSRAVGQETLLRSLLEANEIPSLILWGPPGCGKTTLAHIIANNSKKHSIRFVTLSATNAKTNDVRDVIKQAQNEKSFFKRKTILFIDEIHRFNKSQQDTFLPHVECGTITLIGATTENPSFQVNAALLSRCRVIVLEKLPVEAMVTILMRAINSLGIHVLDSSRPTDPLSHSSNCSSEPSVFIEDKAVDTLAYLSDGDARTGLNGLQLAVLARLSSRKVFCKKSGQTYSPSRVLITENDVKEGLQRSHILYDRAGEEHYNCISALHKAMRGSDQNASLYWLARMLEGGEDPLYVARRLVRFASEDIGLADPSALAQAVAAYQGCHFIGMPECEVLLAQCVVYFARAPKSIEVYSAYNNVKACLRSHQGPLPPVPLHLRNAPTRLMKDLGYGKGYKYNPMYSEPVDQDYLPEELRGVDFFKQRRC
UniProt Q91UZ4: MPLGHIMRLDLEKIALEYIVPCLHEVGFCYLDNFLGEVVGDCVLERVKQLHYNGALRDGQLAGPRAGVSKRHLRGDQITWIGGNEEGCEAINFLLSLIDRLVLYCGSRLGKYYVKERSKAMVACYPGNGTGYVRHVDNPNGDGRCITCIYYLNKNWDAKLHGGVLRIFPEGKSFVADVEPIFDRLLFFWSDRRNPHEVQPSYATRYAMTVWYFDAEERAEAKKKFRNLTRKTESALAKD
UniProt Q91YI1: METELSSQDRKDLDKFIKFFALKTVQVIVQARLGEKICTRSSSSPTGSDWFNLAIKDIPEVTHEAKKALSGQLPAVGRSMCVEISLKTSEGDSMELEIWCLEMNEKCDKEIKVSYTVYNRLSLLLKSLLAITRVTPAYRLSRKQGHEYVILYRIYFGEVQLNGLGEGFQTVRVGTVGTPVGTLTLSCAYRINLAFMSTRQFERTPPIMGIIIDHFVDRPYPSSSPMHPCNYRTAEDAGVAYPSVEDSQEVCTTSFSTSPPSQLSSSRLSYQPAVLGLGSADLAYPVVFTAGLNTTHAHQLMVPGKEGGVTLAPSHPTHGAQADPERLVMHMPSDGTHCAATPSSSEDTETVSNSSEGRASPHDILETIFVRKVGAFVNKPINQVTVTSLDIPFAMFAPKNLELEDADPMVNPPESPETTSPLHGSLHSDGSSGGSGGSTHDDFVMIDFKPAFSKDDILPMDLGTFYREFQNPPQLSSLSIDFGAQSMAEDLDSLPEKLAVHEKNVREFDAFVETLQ
UniProt Q91WS4: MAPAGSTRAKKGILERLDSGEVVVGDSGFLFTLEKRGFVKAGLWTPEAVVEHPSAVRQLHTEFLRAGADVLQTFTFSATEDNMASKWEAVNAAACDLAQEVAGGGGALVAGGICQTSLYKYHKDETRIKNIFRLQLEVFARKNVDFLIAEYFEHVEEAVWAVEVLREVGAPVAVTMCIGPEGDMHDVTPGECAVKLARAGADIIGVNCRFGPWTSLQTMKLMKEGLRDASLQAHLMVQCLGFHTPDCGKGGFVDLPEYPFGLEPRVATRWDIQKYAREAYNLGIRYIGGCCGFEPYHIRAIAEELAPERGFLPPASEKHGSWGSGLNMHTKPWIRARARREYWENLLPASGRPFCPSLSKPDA
UniProt Q91YK2: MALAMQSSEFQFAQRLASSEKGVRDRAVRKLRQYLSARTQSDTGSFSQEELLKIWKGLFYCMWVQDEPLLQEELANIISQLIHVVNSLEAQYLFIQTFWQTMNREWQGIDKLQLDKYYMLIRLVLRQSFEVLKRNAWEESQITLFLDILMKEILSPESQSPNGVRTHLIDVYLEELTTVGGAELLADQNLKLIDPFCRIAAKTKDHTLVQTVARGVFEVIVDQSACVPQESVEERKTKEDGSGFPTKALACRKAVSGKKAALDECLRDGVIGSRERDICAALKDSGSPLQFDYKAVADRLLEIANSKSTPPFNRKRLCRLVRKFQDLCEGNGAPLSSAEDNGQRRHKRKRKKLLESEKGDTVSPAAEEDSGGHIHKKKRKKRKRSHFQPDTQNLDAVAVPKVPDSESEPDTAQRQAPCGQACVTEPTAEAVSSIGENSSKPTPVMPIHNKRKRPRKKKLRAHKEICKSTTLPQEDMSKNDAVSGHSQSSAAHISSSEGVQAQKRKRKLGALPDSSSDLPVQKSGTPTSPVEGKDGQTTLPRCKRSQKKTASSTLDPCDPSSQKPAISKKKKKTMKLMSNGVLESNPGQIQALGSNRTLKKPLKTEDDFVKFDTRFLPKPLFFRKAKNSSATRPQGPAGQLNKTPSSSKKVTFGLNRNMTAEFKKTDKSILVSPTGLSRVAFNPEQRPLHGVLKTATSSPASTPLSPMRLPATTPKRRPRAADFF
UniProt Q91WG5: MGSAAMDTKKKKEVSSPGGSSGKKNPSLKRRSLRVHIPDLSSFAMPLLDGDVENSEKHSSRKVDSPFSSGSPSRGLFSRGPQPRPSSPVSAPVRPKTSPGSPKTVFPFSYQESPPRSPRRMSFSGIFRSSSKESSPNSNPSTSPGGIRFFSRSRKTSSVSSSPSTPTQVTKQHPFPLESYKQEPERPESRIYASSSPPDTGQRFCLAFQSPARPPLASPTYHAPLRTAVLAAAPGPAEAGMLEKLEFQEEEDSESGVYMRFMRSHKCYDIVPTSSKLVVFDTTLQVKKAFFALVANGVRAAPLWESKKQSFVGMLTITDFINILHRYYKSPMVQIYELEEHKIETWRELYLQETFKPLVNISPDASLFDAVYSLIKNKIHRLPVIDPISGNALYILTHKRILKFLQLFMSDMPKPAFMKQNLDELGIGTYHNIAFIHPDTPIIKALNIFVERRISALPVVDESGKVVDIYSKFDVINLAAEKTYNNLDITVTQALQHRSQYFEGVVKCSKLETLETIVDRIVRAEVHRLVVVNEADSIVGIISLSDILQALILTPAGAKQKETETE
UniProt Q91YU8: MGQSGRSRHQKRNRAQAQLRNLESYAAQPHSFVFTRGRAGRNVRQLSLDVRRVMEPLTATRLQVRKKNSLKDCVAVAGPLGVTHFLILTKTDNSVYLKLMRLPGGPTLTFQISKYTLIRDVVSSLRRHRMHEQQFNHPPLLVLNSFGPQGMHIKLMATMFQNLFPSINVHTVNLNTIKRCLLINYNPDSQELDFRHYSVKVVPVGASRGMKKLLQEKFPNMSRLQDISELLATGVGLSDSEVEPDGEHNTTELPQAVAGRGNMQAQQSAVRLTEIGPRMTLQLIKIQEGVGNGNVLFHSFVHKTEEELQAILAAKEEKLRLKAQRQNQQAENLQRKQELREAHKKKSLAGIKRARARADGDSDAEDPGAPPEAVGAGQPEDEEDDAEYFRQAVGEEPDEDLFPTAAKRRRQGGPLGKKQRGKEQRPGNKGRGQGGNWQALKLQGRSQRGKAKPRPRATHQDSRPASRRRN
UniProt Q91WU0: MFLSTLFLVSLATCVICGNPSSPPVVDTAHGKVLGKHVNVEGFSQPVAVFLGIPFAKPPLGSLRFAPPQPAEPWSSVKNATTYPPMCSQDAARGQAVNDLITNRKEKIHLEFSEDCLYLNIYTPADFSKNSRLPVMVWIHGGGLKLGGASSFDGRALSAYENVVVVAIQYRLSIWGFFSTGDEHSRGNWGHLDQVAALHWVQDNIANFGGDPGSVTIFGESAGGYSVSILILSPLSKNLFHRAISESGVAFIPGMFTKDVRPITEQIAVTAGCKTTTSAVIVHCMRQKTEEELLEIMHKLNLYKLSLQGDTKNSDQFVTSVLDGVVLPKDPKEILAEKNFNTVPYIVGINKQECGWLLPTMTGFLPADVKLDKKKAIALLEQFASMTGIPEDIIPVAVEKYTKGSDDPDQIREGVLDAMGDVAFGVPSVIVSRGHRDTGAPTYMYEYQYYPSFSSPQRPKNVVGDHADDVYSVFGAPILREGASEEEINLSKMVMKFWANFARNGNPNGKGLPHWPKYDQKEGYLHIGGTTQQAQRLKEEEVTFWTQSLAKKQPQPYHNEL
UniProt Q91YR7: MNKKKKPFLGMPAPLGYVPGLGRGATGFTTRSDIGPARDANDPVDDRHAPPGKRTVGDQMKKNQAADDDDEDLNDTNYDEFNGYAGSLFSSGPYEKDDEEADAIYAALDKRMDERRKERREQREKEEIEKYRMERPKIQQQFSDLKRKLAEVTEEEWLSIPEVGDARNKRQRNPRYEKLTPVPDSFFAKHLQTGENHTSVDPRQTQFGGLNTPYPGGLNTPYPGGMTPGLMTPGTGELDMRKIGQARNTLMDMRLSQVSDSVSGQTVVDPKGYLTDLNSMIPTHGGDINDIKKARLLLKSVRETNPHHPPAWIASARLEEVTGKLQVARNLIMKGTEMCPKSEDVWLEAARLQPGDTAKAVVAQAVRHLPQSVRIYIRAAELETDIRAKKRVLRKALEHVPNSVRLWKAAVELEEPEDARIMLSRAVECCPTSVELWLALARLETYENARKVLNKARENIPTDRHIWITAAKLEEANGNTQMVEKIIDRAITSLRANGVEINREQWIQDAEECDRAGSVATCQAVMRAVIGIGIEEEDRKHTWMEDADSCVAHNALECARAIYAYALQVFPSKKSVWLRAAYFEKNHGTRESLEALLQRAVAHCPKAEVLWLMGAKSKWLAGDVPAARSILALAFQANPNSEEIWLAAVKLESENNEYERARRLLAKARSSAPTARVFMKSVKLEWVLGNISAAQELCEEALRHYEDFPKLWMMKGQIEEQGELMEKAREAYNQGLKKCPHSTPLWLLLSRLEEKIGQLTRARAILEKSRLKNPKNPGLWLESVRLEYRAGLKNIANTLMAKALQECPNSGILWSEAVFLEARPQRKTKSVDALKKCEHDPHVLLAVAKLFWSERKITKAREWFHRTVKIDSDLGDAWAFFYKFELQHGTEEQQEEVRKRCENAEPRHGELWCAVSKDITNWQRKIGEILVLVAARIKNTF
UniProt Q91WM3: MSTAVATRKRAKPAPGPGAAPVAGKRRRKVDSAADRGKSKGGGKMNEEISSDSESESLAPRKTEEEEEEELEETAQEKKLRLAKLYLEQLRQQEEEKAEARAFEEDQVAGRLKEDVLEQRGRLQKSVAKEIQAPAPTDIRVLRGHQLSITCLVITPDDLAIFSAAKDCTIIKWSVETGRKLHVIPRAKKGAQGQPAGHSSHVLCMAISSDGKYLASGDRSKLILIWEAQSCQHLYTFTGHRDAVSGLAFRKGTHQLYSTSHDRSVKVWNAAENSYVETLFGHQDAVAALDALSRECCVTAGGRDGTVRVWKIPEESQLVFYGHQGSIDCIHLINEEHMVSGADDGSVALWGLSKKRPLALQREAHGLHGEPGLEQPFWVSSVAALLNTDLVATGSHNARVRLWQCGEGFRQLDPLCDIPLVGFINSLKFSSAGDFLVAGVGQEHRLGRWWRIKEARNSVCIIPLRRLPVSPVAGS

Compound in the experiment: CN[C@@H]1C[C@H]2O[C@@](C)([C@@H]1OC)n1c3ccccc3c3c4c(c5c6ccccc6n2c5c31)C(=O)NC4 [staurosporine]
Kind of experiment: log2 fold change of tryptic peptide abundance, ligand vs vehicle (limited proteolysis) (log2 ratio); higher = more trypsin-susceptible (destabilized). The conditions noted are these: ligand concentration: 20 uM; sample: mouse liver crude lysate; replicate design: treated separately.
Turning to “UniProt Q91VM5 (peptide sequence: DRDYSDHPSGGSYR, peptide start residue: 266)”, the log2 fold change stood at 0.138.
For “UniProt Q91YT7 (peptide sequence: LENNENKPVTNSR, peptide start residue: 515)” the value was -0.646; for “UniProt Q91X51 (peptide sequence: ANVEKPVK, peptide start residue: 61)”, -0.237; for “UniProt Q91V88 (peptide sequence: GHTGEIGLDDVSLKR, peptide start residue: 544)”, 0.858.
For “UniProt Q91ZH7 (peptide sequence: TLDDYYTDASPNRR, peptide start residue: 317)” the value was 0.242; for “UniProt Q91ZE5 (peptide sequence: EVESESTEVSHSTTHTK, peptide start residue: 613)”, -0.257.
For “UniProt Q91VR2 (peptide sequence: HLIIGVSSDR, peptide start residue: 91)” the value was 0.156; for “UniProt Q91W90 (peptide sequence: FFAPWCGHCK, peptide start residue: 198)”, -0.583.
Regarding “UniProt Q8VII8 (peptide sequence: SGILPSDIK, peptide start residue: 81)”, the log2 fold change was -0.0936.
For “UniProt Q91X20 (peptide sequence: SLPDTYKDK, peptide start residue: 496)” the value was -0.147; for “UniProt Q91YY5 (peptide sequence: VENDGELK, peptide start residue: 660)”, -0.274.
In the case of “UniProt Q91YP3 (peptide sequence: GTELDLSWISK, peptide start residue: 7)”, the log2 fold change amounted to 0.342.
To “UniProt Q91WS0 (peptide sequence: VVHAFDMEDLGDK, peptide start residue: 56)” belongs -0.155.
For “UniProt Q91XU0 (peptide sequence: SHILYDR, peptide start residue: 483)” the value was -0.103.
For “UniProt Q91UZ4 (peptide sequence: HVDNPNGDGR, peptide start residue: 290)”, the log2 fold change was 0.181.
For “UniProt Q91YI1 (peptide sequence: ASPHDILETIFVR, peptide start residue: 359)” the value was 0.132; for “UniProt Q91VM9 (peptide sequence: ADCKEEHDIPR, peptide start residue: 65)”, 0.178; for “UniProt Q91WS4 (peptide sequence: AGLWTPEAVVEHPSAVR, peptide start residue: 41)”, -0.198.
For “UniProt Q91YK2 (peptide sequence: AALDECLRDGVIGSR, peptide start residue: 260)” the value was -0.475.
For “UniProt Q91WG5 (peptide sequence: MSFSGIFR, peptide start residue: 121)” the value was -0.212; for “UniProt Q91YU8 (peptide sequence: LLQEKFPNMSR, peptide start residue: 213)”, -0.197; for “UniProt Q91XB0 (peptide sequence: AELEVQGR, peptide start residue: 90)”, -0.118.
Turning to “UniProt Q91VU7 (peptide sequence: SLFPGLETK, peptide start residue: 212)”, the log2 fold change came to 0.162.
To “UniProt Q91VN6 (peptide sequence: CALCIGGMSVK, peptide start residue: 294)” belongs 0.551; to “UniProt Q91WU4 (peptide sequence: VAGLQPVLLQDRR, peptide start residue: 476)”, -0.272; to “UniProt Q91WU0 (peptide sequence: GSDDPDQIR, peptide start residue: 404)”, -0.334.
Turning to “UniProt Q91VZ6 (peptide sequence: LNEQHQLILSK, peptide start residue: 13)”, the log2 fold change was -0.2.
As to “UniProt Q91W40 (peptide sequence: RSSSFSKLR, peptide start residue: 429)”, the log2 fold change was -0.0669.
On to “UniProt Q91WK5 (peptide sequence: SCYEDGWLIK, peptide start residue: 134)”, for which the log2 fold change is -0.477.
For “UniProt Q91WB4 (peptide sequence: NGWLIKTPTK, peptide start residue: 98)” the value was 0.719; for “UniProt Q91XY4 (peptide sequence: QNVYIPGSNATLTNAAGKR, peptide start residue: 891)”, 0.113.
To “UniProt Q91Z58 (peptide sequence: ELQNHPAK, peptide start residue: 818)” belongs 0.599; to “UniProt Q91WS7 (peptide sequence: RHNDCFVGSEAVDVIYSHLTQNK, peptide start residue: 61)”, -0.471.
For “UniProt Q91YR7 (peptide sequence: KIGEILVLVAAR, peptide start residue: 925)” the value was 0.565.
Consider “UniProt Q91WM3 (peptide sequence: LYLEQLR, peptide start residue: 85)”, for which the log2 fold change is -0.097.
To “UniProt Q91YJ3 (peptide sequence: LEDEAFFYHSNCK, peptide start residue: 108)” belongs -0.544.

(Values after the supplement of paper PMC12819154, “High-throughput peptide-centric local stability assay extends protein–ligand identification to membrane proteins, tissues and bacteria” (Nature Structural & Molecular Biology, 2025).)
